For assay [1], the target named is human tropomodulin 4 (Tmod4) (human) (UniProt Q9NZQ9). As to the kind of experiment: SEC; Superose 6 Increase 10/300 GL, 50 mM HEPES-Na pH 7.3, 150 mM NaCl, 1 mM DTT, 0.5 mL/min, 280 nm; 30 µM Tpm and Tmod1, or 26 µM Tpm and 13 µM Tmod4; single proteins and mixtures; both purified. On the technique in general: In gel filtration, larger molecules generally elute earlier.

Assay [2] concerns the target T1, human tropomodulin 1 (Tmod1) (human), P28289.
T1 chain: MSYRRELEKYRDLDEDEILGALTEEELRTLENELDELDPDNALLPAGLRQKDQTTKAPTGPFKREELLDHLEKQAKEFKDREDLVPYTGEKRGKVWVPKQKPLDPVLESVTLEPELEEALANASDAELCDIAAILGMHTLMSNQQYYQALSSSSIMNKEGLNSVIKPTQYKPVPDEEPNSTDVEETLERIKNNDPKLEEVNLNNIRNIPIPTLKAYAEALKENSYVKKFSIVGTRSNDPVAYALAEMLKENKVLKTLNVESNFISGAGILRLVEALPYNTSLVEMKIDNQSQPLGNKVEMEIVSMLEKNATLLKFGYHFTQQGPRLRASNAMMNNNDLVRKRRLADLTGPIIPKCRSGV
The assay is described as above. As to conditions: remark: other sources report otherwise.

Results are given in words; binding and its absence hold for the method and conditions named.

B1: human tropomodulin 4 (Tmod4) (protein, UniProt Q9NZQ9 1-345)
chain: MSSYQKELEKYRDIDEDEILRTLSPEELEQLDCELQEMDPENMLLPAGLRQRDQTKKSPTGPLDREALLQYLEQQALEVKERDDLVPFTGEKKGKPYIQPKREIPAEEQITLEPELEEALAHATDAEMCDIAAILDMYTLMSNKQYYDALCSGEICNTEGISSVVQPDKYKPVPDEPPNPTNIEEILKRVRSNDKELEEVNLNNIQDIPIPMLSELCEAMKANTYVRSFSLVATRSGDPIANAVADMLRENRSLQSLNIESNFISSTGLMAVLKAVRENATLTELRVDNQRQWPGDAVEMEMATVLEQCPSIVRFGYHFTQQGPRARAAQAMTRNNELRRQQKKR
Regarding B1, in assay [1], the binding result was “no binding (tested: 13 µM)”.

B2: human tropomodulin 1 (Tmod1), P28289 1-359 (protein)
chain: MSYRRELEKYRDLDEDEILGALTEEELRTLENELDELDPDNALLPAGLRQKDQTTKAPTGPFKREELLDHLEKQAKEFKDREDLVPYTGEKRGKVWVPKQKPLDPVLESVTLEPELEEALANASDAELCDIAAILGMHTLMSNQQYYQALSSSSIMNKEGLNSVIKPTQYKPVPDEEPNSTDVEETLERIKNNDPKLEEVNLNNIRNIPIPTLKAYAEALKENSYVKKFSIVGTRSNDPVAYALAEMLKENKVLKTLNVESNFISGAGILRLVEALPYNTSLVEMKIDNQSQPLGNKVEMEIVSMLEKNATLLKFGYHFTQQGPRLRASNAMMNNNDLVRKRRLADLTGPIIPKCRSGV
Take B2: the binding result in assay [2] was “no binding (tested: 30 µM)”.

These data come from PMC12109978.
